Measurements taken from publication PMC3240579.

Molecular target: VvMYC1 fused to the GAL4 DNA Binding Domain (Vitis vinifera (grape)) (UniProt B7SNG3)
Assay: two-hybrid; yeast AH109; VvMYB5b^R or VvMYB5b^L fused to GAL4 AD, VvMYC1 fused to GAL4 DBD; selection on SD-Trp-Leu-; LacZ activation read as beta-galactosidase activity

Q: How did the binding turn out when “VvMYB5b^R (native VvMYB5b) fused to the GAL4 Activation Domain (from UniProt Q58QD0)” was run?
A: Its binding is “binds”.

No constants are given. Whether binding was seen depends on the method and setting. A result given as binding can be weak or reduced; the word gives no strength.
